PubChem BioAssay AID504804 – Drosophila RNAi Screening Center – 2011
Screen: 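dsRNAs that improve Kc cell survival under doxorubicin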 (primary screen). Cell system: Drosophila Kc cells. Reagent: long dsRNA against Drosophila genes, 0.5 µg dsRNA per well. Timing: 96 h (48 h knock-down, then 48 h drug). Treatment: doxorubicin 5 µg/ml for 48 h, added 48 h after dsRNA. Detection: 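Viability measured as cellular ATP by luminescence after 48 h knock-down then 48 h doxorubicin at 5 µg/ml; unnormalised plate counts for each replicate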. Reading the numbers: raw ATP luminescence: higher = more viable cells, protection from doxorubicin. Hit rule: 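z-score of 2 or more over plate mean in both duplicates, retained only when retests and separate dsRNAs confirm the protection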.
The deposit covers about 19,000 reagents; shown is a random part of those with a known target gene and a result. In the full data, 47 (0.25%) were called active. 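Signals are raw, not normalised; exact z-scores behind calls not deposited; actives needed confirmation, so some wells reaching 2 SD are inactive.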 Reagents against one gene are numbered here. Names joined by + are all predicted targets of the reagent. Reagent sequences are not shown.

| Target gene | reagent | raw ATP luminescence, replicate 1 | raw ATP luminescence, replicate 2 | call |
| --- | --- | --- | --- | --- |
| CG14538 (retired record) (GeneID 34056) | 1 | 37143 | 56550 | inactive |
| CG12945 (GeneID 41204) | 1 | 61603 | 54097 | inactive |
| CG30109 + CG30108 | 1 | 1.52e5 | 1.31e5 | inactive |
| CG34106 (GeneID 4379891) | 1 | 3.32e5 | 2.68e5 | inactive |
| Ssk (GeneID 40207) | 1 | 42310 | 21297 | inactive |
| Yeti (GeneID 7354404) | 1 | 1.94e5 | 2.06e5 | inactive |
| CG12507 (GeneID 32580) | 1 | 2.78e5 | 2.61e5 | inactive |
| CG11836 (GeneID 43007) | 1 | 30110 | 38310 | inactive |
| Rpn1 (GeneID 40174) | 1 | 18150 | 15823 | inactive |
| CG13739 (GeneID 35957) | 1 | 18867 | 27623 | inactive |
| N (GeneID 31293) | 1 | 47580 | 49240 | inactive |
| Arpc1 (GeneID 34793) | 1 | 66487 | 53590 | inactive |
| CG17707 (GeneID 5740408) | 1 | 3.60e5 | 3.32e5 | inactive |

Continued (4 carried over from the part before).
| Target gene | reagent | raw ATP luminescence, replicate 1 | raw ATP luminescence, replicate 2 | call |
| --- | --- | --- | --- | --- |
| CG13739 (GeneID 35957) | 1 | 18867 | 27623 | inactive |
| N (GeneID 31293) | 1 | 47580 | 49240 | inactive |
| Arpc1 (GeneID 34793) | 1 | 66487 | 53590 | inactive |
| CG17707 (GeneID 5740408) | 1 | 3.60e5 | 3.32e5 | inactive |
| CG11854 (GeneID 43037) | 1 | 64310 | 66760 | inactive |
| l(2)dtl (GeneID 46326) | 1 | 67230 | 51863 | inactive |
| Ak3 (GeneID 41318) | 1 | 49030 | 52337 | inactive |
| CG10918 (GeneID 33123) | 1 | 2.03e5 | 2.02e5 | inactive |
| CG14115 (GeneID 39487) | 1 | 78607 | 1.49e5 | inactive |
| CG8192 (GeneID 36723) | 1 | 64480 | 50327 | inactive |
| BaraB (GeneID 35894) | 1 | 48803 | 85073 | inactive |
| CG10097 + CG10096 | 1 | 58597 | 33387 | inactive |
| CG10097 + CG10096 | 2 | 49270 | 47643 | inactive |
| qm (GeneID 38816) | 1 | 83717 | 80177 | inactive |
| CAH9 (GeneID 43264) | 1 | 60510 | 51510 | inactive |
| ash1 (GeneID 40133) | 1 | 19347 | 19453 | inactive |
| l(3)L1231 (GeneID 41776) | 1 | 1.01e5 | 46317 | inactive |
| Nhe3 (GeneID 33939) | 1 | 44423 | 46570 | inactive |
| CG3649 (GeneID 37626) | 1 | 89203 | 59280 | inactive |
| sw + Sdic4 + Sdic3 + 2 more | 1 | 3.39e5 | 3.67e5 | inactive |
| eIF4A (GeneID 33835) | 1 | 23387 | 29097 | inactive |
| CG9813 (GeneID 41644) | 1 | 49747 | 25507 | inactive |
| CG17618 (retired record) + CG45049 | 1 | 60740 | 61650 | inactive |
| CG31360 (GeneID 318698) | 1 | 1.53e5 | 2.41e5 | inactive |
| Bet3 (GeneID 39090) | 1 | 84547 | 87093 | inactive |
